Laboratory results as given in the M2OR odorant receptor database.
This is a selection; strong and weak results do not stand in their true shares. Calls are pooled over several reports, among them a noisy single-well screen. The list shows a part of the results.

Chains of the proteins cited; added tags and fusions are not shown. Chains listed by the source or under a name are the forms on record and can include a tag or linker.
OR4N5, as listed by the source: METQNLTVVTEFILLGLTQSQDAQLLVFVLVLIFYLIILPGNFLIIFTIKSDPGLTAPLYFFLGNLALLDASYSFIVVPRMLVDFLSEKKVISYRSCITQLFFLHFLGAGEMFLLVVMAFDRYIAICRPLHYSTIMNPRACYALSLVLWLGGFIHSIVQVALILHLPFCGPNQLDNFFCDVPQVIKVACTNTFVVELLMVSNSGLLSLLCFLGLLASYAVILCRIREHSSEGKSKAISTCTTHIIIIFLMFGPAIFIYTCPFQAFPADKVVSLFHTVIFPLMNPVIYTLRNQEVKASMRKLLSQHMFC

Columns and labels:
Details in all cases: stereoisomer not certain
[1] = system: T1, OR4K3
T1 sequence (whole entry): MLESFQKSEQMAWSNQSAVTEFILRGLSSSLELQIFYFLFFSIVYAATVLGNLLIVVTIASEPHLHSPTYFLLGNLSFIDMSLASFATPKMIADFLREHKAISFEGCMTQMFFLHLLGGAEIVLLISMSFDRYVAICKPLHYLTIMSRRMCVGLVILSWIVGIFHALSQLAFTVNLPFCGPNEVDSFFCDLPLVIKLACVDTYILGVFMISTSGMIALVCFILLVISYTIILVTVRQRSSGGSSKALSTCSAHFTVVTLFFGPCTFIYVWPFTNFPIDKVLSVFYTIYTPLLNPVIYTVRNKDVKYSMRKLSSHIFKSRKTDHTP
Outline: (§1)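 Values were gathered from published papers (main text and supplementary material), with extra details requested from the original authors when needed, and checked for typos and inconsistencies. Each receptor–molecule pair is called responsive (active) if the original authors judged the measured signal statistically different from baseline, and non-responsive (inactive) otherwise. Assay methods varied by source, often transient mammalian cell-line luciferase assays. Recorded details include cell line, G-protein, co-transfected protein and tags.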

[2] = molecular target: T2, OR4K5 (Homo sapiens) (UniProt Q8NGD3)
T2 sequence (whole entry): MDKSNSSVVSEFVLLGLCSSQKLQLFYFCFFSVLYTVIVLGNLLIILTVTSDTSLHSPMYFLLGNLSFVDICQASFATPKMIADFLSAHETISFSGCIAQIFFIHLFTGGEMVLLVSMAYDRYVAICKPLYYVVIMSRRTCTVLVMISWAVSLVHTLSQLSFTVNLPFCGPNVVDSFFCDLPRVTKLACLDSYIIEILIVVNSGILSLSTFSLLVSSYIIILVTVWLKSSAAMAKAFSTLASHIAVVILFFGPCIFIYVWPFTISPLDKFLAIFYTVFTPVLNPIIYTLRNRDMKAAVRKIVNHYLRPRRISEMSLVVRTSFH
Outline: as §1

[3] = system: T3, OR4KF
T3 sequence (whole entry): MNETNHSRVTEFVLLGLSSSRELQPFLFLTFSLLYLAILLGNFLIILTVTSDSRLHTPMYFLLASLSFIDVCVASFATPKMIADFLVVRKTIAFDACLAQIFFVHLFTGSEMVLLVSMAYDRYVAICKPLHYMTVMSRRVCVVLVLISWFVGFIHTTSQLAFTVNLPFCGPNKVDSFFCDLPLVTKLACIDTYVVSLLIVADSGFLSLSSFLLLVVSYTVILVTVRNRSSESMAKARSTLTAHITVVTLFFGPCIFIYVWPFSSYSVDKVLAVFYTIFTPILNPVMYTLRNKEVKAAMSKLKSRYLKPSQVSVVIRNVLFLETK
Outline: as §1

[4] = system: T4, OR4KH
T4 sequence (whole entry): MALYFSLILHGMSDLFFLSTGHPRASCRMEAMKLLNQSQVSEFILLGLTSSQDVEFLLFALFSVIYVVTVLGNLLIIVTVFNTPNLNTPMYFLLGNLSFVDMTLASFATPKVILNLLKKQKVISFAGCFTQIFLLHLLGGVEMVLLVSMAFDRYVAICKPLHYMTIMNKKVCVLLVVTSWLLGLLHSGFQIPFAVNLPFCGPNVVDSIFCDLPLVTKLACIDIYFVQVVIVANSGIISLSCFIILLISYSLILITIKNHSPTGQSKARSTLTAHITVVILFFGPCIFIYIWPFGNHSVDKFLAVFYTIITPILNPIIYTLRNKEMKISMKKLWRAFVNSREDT
Outline: as §1

[5] = system: T5, OR4L1
T5 sequence (whole entry): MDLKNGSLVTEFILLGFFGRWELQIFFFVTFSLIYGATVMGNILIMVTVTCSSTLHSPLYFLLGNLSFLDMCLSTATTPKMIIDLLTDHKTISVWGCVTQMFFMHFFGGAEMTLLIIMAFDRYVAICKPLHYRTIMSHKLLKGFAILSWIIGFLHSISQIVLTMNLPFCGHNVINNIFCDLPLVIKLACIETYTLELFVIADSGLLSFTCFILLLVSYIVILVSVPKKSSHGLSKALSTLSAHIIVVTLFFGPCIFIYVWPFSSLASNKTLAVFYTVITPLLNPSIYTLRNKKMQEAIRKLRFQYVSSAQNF
Outline: as §1

[6] = molecular target: T6, OR4M1 (Homo sapiens) (UniProt Q8NGD0)
T6 sequence (whole entry): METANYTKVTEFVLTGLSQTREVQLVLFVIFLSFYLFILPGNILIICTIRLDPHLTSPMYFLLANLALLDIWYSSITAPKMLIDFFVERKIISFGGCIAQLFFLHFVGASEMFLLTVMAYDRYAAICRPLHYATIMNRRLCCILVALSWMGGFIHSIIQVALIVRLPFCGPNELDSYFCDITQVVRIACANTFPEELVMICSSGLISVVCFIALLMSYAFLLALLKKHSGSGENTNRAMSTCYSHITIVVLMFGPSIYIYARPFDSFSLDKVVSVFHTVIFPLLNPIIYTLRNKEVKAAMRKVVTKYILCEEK
Outline: as §1

[7] = molecular target: T7, OR4N2 (Homo sapiens) (UniProt Q8NGD1)
T7 sequence (whole entry): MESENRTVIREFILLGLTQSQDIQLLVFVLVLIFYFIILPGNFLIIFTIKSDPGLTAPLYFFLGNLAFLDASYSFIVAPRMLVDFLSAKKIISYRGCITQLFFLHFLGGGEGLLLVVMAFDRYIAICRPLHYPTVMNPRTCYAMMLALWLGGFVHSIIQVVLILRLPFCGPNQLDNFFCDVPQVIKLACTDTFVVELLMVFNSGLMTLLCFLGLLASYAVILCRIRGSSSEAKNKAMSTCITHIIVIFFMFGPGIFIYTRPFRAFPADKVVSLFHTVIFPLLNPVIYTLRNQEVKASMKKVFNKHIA
Outline: as §1

[8] = molecular target: T8, OR4N4 (Homo sapiens) (UniProt Q8N0Y3)
T8 sequence (whole entry): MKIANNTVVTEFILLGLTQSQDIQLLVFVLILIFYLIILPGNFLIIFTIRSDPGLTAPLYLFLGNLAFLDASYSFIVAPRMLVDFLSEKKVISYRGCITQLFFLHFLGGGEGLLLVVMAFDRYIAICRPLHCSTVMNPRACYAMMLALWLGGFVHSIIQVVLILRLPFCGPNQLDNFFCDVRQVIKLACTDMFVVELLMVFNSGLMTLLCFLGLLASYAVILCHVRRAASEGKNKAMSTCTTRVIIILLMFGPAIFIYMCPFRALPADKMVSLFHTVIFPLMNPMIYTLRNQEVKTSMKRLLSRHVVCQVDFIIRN
Outline: as §1

[9] = molecular target: T9, OR4N5 (Homo sapiens) (UniProt Q8IXE1)
T9 sequence (whole entry): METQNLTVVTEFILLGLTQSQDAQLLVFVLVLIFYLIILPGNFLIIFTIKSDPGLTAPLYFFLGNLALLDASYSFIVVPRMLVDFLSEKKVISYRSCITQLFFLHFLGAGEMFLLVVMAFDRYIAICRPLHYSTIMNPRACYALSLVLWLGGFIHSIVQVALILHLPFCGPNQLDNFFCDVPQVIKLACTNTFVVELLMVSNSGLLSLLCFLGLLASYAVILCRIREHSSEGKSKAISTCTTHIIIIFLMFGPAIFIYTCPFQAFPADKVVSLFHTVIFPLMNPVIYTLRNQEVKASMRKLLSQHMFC
Outline: as §1

[10] = system: T10, OR4P4
T10 sequence (whole entry): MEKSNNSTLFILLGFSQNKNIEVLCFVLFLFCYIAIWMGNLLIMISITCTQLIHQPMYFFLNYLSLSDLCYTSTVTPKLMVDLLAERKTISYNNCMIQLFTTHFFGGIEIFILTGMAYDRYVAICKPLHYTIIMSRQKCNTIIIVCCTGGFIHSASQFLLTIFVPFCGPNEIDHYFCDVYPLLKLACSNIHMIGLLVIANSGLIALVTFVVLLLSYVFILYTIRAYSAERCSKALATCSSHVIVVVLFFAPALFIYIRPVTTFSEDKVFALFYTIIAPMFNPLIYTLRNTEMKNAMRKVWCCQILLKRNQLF
Outline: as §1

[11] = system: T11, OR4P4; remark: listed apart in the source
T11 sequence (whole entry): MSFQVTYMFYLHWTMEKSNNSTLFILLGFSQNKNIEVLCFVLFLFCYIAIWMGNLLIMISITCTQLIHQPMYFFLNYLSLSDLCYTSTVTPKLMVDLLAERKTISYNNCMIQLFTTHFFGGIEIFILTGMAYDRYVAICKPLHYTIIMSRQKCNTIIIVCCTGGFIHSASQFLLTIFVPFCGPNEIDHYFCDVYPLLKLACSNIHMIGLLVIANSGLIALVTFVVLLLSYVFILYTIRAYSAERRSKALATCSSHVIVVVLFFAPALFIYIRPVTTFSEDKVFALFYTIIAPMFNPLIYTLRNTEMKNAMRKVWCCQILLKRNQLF
Outline: as §1

[12] = molecular target: T12, OR4Q3 (Homo sapiens) (UniProt Q8NH05)
T12 sequence (whole entry): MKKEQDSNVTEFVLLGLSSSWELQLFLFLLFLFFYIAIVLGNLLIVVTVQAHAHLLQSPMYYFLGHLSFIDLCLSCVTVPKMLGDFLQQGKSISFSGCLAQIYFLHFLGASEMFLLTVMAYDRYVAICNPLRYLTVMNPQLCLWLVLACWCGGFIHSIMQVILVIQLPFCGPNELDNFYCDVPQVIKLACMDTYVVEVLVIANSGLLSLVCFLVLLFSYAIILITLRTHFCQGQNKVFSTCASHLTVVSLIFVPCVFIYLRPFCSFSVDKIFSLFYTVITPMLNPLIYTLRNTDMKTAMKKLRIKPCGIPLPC
Outline: as §1

[13] = molecular target: T13, OR4S1 (Homo sapiens) (UniProt Q8NGB4)
T13 sequence (whole entry): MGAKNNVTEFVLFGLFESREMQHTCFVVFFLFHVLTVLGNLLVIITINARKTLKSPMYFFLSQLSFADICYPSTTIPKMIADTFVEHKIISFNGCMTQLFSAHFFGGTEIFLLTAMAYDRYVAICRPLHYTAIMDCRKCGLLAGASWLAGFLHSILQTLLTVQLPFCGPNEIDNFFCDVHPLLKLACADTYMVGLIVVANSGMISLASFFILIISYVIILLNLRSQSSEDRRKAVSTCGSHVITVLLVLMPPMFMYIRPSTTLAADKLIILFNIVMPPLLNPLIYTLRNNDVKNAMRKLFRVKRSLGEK
Outline: as §1

[14] = system: OR4N5
Outline: as §1

COc1ccccc1O was tested, and the “odorant receptor agonist call” value [1] was “inactive”, the “odorant receptor agonist call” value [2] was “inactive” and the “odorant receptor agonist call” value [3] was “inactive”. The “odorant receptor agonist call” value [4] was “inactive”, the “odorant receptor agonist call” value [5] was “inactive” and the “odorant receptor agonist call” value [6] was “inactive”. The “odorant receptor agonist call” value [7] was “inactive”, the “odorant receptor agonist call” value [8] was “inactive” and the “odorant receptor agonist call” value [9] was “inactive”. For the same compound, the “odorant receptor agonist call” value [10] was “inactive”, the “odorant receptor agonist call” value [11] was “inactive” and the “odorant receptor agonist call” value [12] was “inactive”. For the same compound, the “odorant receptor agonist call” value [13] was “inactive”.
CC(=O)OCC=C(C)CCC=C(C)C was tested, and the “odorant receptor agonist call” value [1] was “inactive”, the “odorant receptor agonist call” value [2] was “inactive” and the “odorant receptor agonist call” value [3] was “active”. For the same compound, the “odorant receptor agonist call” value [4] was “inactive”, the “odorant receptor agonist call” value [5] was “active” and the “odorant receptor agonist call” value [6] was “active”. The “odorant receptor agonist call” value [7] was “inactive”, the “odorant receptor agonist call” value [8] was “inactive” and the “odorant receptor agonist call” value [9] was “inactive”. The “odorant receptor agonist call” value [10] was “inactive”, the “odorant receptor agonist call” value [11] was “inactive” and the “odorant receptor agonist call” value [12] was “inactive”. The “odorant receptor agonist call” value [13] was “inactive”.
CCCCCCCCCC=O was tested, and the “odorant receptor agonist call” value [1] was “inactive”, the “odorant receptor agonist call” value [2] was “inactive” and the “odorant receptor agonist call” value [3] was “active”. The “odorant receptor agonist call” value [4] was “inactive”, the “odorant receptor agonist call” value [5] was “inactive” and the “odorant receptor agonist call” value [6] was “inactive”. For the same compound, the “odorant receptor agonist call” value [7] was “inactive”, the “odorant receptor agonist call” value [8] was “inactive” and the “odorant receptor agonist call” value [9] was “inactive”. For the same compound, the “odorant receptor agonist call” value [14] was “inactive”, the “odorant receptor agonist call” value [10] was “inactive” and the “odorant receptor agonist call” value [11] was “inactive”. The “odorant receptor agonist call” value [12] was “inactive” and the “odorant receptor agonist call” value [13] was “inactive”.
For O=C1CCCCCCCCCCCC(=O)OCCO1, the “odorant receptor agonist call” value [1] was “inactive”, the “odorant receptor agonist call” value [2] was “inactive” and the “odorant receptor agonist call” value [3] was “inactive”. The “odorant receptor agonist call” value [4] was “inactive”, the “odorant receptor agonist call” value [5] was “inactive” and the “odorant receptor agonist call” value [6] was “active”. For the same compound, the “odorant receptor agonist call” value [7] was “inactive”, the “odorant receptor agonist call” value [8] was “inactive” and the “odorant receptor agonist call” value [9] was “inactive”. The “odorant receptor agonist call” value [10] was “inactive”, the “odorant receptor agonist call” value [11] was “inactive” and the “odorant receptor agonist call” value [12] was “inactive”. The “odorant receptor agonist call” value [13] was “inactive”.
In the case of CC(C)C(=O)O, the “odorant receptor agonist call” value [1] is reported as “inactive”, the “odorant receptor agonist call” value [2] is reported as “inactive” and the “odorant receptor agonist call” value [3] is reported as “inactive”. The “odorant receptor agonist call” value [4] was “inactive”, the “odorant receptor agonist call” value [5] was “inactive” and the “odorant receptor agonist call” value [6] was “inactive”. The “odorant receptor agonist call” value [7] was “inactive”, the “odorant receptor agonist call” value [8] was “inactive” and the “odorant receptor agonist call” value [9] was “inactive”. For the same compound, the “odorant receptor agonist call” value [10] was “inactive”, the “odorant receptor agonist call” value [11] was “inactive” and the “odorant receptor agonist call” value [12] was “inactive”. For the same compound, the “odorant receptor agonist call” value [13] was “inactive”.
COC(=O)c1ccccc1O was tested, and the “odorant receptor agonist call” value [1] was “inactive”, the “odorant receptor agonist call” value [2] was “inactive” and the “odorant receptor agonist call” value [3] was “inactive”. For the same compound, the “odorant receptor agonist call” value [4] was “inactive”, the “odorant receptor agonist call” value [5] was “inactive” and the “odorant receptor agonist call” value [6] was “inactive”. The “odorant receptor agonist call” value [7] was “inactive”, the “odorant receptor agonist call” value [8] was “inactive” and the “odorant receptor agonist call” value [9] was “inactive”. For the same compound, the “odorant receptor agonist call” value [10] was “inactive”, the “odorant receptor agonist call” value [11] was “inactive” and the “odorant receptor agonist call” value [12] was “inactive”. The “odorant receptor agonist call” value [13] was “inactive”.
